Experimental data published in PubChem BioAssay AID1347075 (National Center for Advancing Translational Sciences (NCATS), 2019).
Among all 400,000 compounds or so, about 5,500 (1.4%) were called active. The inconclusive results got no clear call from the source; some entries with a clear call stand among them for comparison. Calls follow the shape of the dose curve; as a rule, active = well fitted cell-killing curve with a large enough effect; inconclusive = small, poorly fitted or top-dose-only effect, or effect the other way; inactive = flat fitted curve, though single readings scatter. Where the call is inconclusive, the potency comes from a doubtful curve fit.
Potency is read from the fitted curve at half-maximal effect.

Assay: qHTS assay for MDR1-selective chemotherapeutics: Primary screen using the parental adenocarcinoma cell KB-3-1; also: nearly all actives have a fitted effect of over 60% in size
Details: KB-3-1 viability, CellTiter-Glo ATP luminescence, 72 h; series mostly up to 46.1 µM
Method in brief: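 Cytotoxicity measured as CellTiter-Glo luminescence after 72 h at 37 C. Compound titrations were pinned onto drug-naive KB-3-1 parental adenocarcinoma cells grown in DMEM with 10% FBS, and normalized data fitted to concentration-response curves.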
For `CCCCN(C)CCNC(=O)c1cc(-c2ccc(Cl)s2)nc2ccccc12`, the Potency was “inactive”. With `CCCCc1c(C)c2ccc(OC)c(/C(C)=N\O)c2oc1=O` the Potency was inconclusive: 29.1 µM [cytotoxic, single point]. In the case of `CSCCOC(=O)C1=C(C)NC(=O)CC1c1ccccc1Cl` (stereo not drawn), the Potency was inconclusive: 20.6 µM [cytotoxic, partial curve]. In the case of `COc1ccc([C@H]2CC(=O)C=C(c3ccc4ccccc4c3)C2)cc1OC`, the Potency was inconclusive: 20.6 µM [cytotoxic, single point]. With `CCOC(=O)c1c(-c2ccccc2)csc1NC(=O)c1nc(SCC)ncc1Cl` the Potency was “inactive”. For `Cn1c(=O)c2c(nc(SCc3nc(N)nc(N4CCCCC4)n3)n2C)n(C)c1=O`, the Potency was inconclusive: 14.6 µM [rising, partial curve, poor fit]. With `Cn1c(SCC(=O)NC(=O)Nc2ccccc2)nnc1-c1ccncc1` the Potency was inconclusive: 2.91 µM [rising, partial curve, poor fit]. With `O=C(NCC1CCCO1)Nc1ccc2c(c1)OCO2` (stereo not drawn) the Potency was inconclusive: 0.0046 µM [rising, full curve, poor fit]. In the case of `CC(C)(CNC(=O)c1cc([N+](=O)[O-])ccc1N1CCC(Cc2ccccc2)CC1)N1CCOCC1`, the Potency was inconclusive: 18.4 µM [cytotoxic, partial curve, poor fit]. For `CS(=O)(=O)c1nc(-c2ccccc2)cc(-c2ccccc2)c1C#N`, the Potency was inconclusive: 29.1 µM [cytotoxic, single point]. In the case of `COc1ccc(OC)c(CNC(=O)CCS(=O)(=O)c2ccc3c(c2)oc(=O)n3C)c1`, the Potency was “inactive”. With `N#Cc1ccc(/C=C2\C=Cc3ccccc32)cc1` the Potency was inconclusive: 20.6 µM [cytotoxic, partial curve, poor fit]. For `CC(=O)Nc1cccc(-c2ccnc3c2CC(C)(C(=O)NCc2ccncc2)O3)c1` (stereo not drawn), the Potency was inconclusive: 18.4 µM [cytotoxic, single point]. With `Cc1ccc(C(=O)NCCn2c(N)c(C#N)c3nc4ccccc4nc32)cc1` the Potency was inconclusive: 9.2 µM [rising, partial curve]. With `C[C@H](NC(=O)c1[nH]cnc1C(=O)Nc1ccc(CNC(=O)OC(C)(C)C)cc1)C(=O)OC(C)(C)C` the Potency was inconclusive: 20.6 µM [cytotoxic, single point]. With `O=C1C=CC(=O)N1N(c1ccccc1)c1ccccc1` the Potency was “inactive”. In the case of `COc1cccc(CNc2ccc(S(=O)(=O)N3CCCC3)cn2)c1`, the Potency was “inactive”. In the case of `CCOC(=O)[C@@H]1[C@H]2COc3ccccc3[C@H]2N2C(=O)N(c3ccc(Cl)cc3)C(=O)[C@@]12C`, the Potency was inconclusive: 14.6 µM [cytotoxic, single point].
